Experimental data as given in paper PMC6470148.

Biological target: T1, HA-tagged TRAF6 (UniProt P70196)
T1 sequence: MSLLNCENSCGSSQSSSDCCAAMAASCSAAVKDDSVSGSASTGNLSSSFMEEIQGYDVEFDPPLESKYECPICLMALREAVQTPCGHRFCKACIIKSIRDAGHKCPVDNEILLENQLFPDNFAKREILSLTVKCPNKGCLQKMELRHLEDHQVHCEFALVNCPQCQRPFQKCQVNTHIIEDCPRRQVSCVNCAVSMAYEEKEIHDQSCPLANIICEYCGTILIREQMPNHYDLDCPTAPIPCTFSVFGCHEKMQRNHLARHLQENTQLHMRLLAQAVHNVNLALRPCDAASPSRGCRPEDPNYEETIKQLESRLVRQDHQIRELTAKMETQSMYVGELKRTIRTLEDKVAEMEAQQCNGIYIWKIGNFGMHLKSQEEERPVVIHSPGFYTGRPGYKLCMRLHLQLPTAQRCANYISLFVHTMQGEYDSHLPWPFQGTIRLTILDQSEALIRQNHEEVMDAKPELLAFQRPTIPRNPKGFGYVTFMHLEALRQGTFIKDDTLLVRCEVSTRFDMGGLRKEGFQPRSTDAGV
Experiment: co-IP; HEK293T cells transfected with tagged constructs; lysates precipitated with anti-Flag or anti-HA antibody and protein A/G beads, western blot

Question: For “Flag-tagged MVP α-helical domain (686–870) (domain or fragment)”, which binding is on record?
Answer: The binding was “binds”.

Results are given in words; binding and its absence hold for the method and conditions named. Binding seen in cells or lysates may run through a third protein. A result given as binding can be weak or reduced; the word gives no strength. Sequences can lack the tags named with a protein.
